# Results taken from PubChem BioAssay AID540256 (National Center for Advancing Translational Sciences (NCATS), 2011).
# Among all 300,000 compounds or so, about 3,700 (1.2%) were called active. This list was built around the results that the source calls inconclusive (neither active nor inactive); the mix of calls is not that of the screen. Calls come from the whole dose curve; tested in HEK293 cells. Potencies of inconclusive entries are doubtful fits and often do not repeat.
# Assay: qHTS for Inhibitors of binding or entry into cells for Lassa Virus; note: nearly all actives have a fitted effect of over 50% in size
# Details: Lassa virus pseudotype entry inhibition, cell reporter; activity change, negative = inhibition: at 37.9 µM (top of the series) unless noted
# % is set by controls: 0 for no effect and ±100 for the full control effect; potency is the fitted concentration of half-maximal effect.
Structure (SMILES),"activity change, negative = inhibition",Potency
CCOc1ccccc1C(=O)N(Cc1ccco1)Cc1ccccc1F,inactive: 9.93% [at 46.1 µM],–
COc1ccc(C(=O)N2CC3(C)C4CCC3(C)C2(C#N)C4)cc1OC (stereo not drawn),–,"inconclusive: 1.12 µM [inhibitor, partial curve, poor fit]"
Cc1ccc(C(=O)Nc2ccc(Br)cc2)cc1S(=O)(=O)NCc1ccccc1,–,"inconclusive: 11.2 µM [inhibitor, partial curve, poor fit]"
COc1cc(/C=N/OCC(=O)Nc2cc(C)cc(C)c2)ccc1OCc1ccc(Cl)cc1,–,"inconclusive: 2.91 µM [activator, single point]"
CCOc1cc(/C=N/N=C(N)N)ccc1OCc1ccc(Cl)cc1,–,"inconclusive: 29.1 µM [inhibitor, single point]"
O=[N+]([O-])c1cccc(N(CC(O)CN2CCCC2)S(=O)(=O)c2ccccc2)c1 (stereo not drawn),inactive: 10.9% [at 46.1 µM],–
CCN(CC)S(=O)(=O)c1ccc(N2C(=O)CC2(/C=C/c2ccccc2)C(=O)NC2CCCC2)cc1 (stereo not drawn),–,"inconclusive: 0.326 µM [inhibitor, full curve, poor fit]"
CC1=CCC(COC(=O)Nc2ccccc2)CC1 (stereo not drawn),–,"inconclusive: 1.12 µM [activator, full curve, poor fit]"
CCCCN(C(=O)CSc1nnc(-c2ccc(Cl)cc2)o1)c1c(N)n(CC(C)C)c(=O)[nH]c1=O,–,"inconclusive: 35.5 µM [inhibitor, single point]"
CC(C)(C)CC(C)(C)NC(=S)Nc1ccc(S(=O)(=O)N2CCOCC2)cc1,–,"inconclusive: 16.4 µM [inhibitor, partial curve]"
Cn1c(C(=O)OC(C(=O)NC2CCCCC2)c2ccncc2)cc2sccc21 (stereo not drawn),–,"inconclusive: 23.1 µM [inhibitor, single point]"
O=C(COC(=O)c1ccccc1Br)Nc1ccc2[nH]c(=O)[nH]c2c1,–,"inconclusive: 2.24 µM [inhibitor, partial curve, poor fit]"
O=C(NCCc1c[nH]c2ccccc12)C1CCN(c2nnc(N3CCCC3=O)s2)CC1,–,"inconclusive: 8.91 µM [inhibitor, partial curve]"
O=C(NC1CCCCC1)NC1CCN(S(=O)(=O)Cc2ccccc2)CC1,–,"inconclusive: 10 µM [inhibitor, partial curve]"
COc1ccc(OC)c(S(=O)(=O)N2CCC(C(=O)NC(C)c3ccccc3)CC2)c1 (stereo not drawn),inactive: -2.77%,–
Cc1ccc(C)c2[nH]c(=O)c(CN(Cc3ccc4c(c3)OCO4)Cc3nnnn3Cc3ccco3)cc12,–,"inconclusive: 10 µM [inhibitor, single point]"
Cc1csc2nc(COC(=O)c3ccc(NC(=O)C(C)C)cc3)cc(=O)n12,–,"inconclusive: 35.5 µM [inhibitor, single point]"
CCCC(=O)N(Cc1cc(=O)[nH]c2ccccc12)c1ccc(OC)cc1,inactive: -1.38%,–
O=[N+]([O-])c1cccc(-c2ccc(/C=N/NC(=S)NCc3ccco3)o2)c1,inactive: -27.1%,–
C=CCN(CC=C)CC(O)Cn1c2ccccc2c2ccccc21 (stereo not drawn),–,"inconclusive: 25.9 µM [inhibitor, partial curve, poor fit]"
CC(C)CC(=O)Nc1ccc(N2CCOCC2)cc1,inactive: 1.81%,–
COC(=O)c1sc2ccccc2c1NC(=O)c1ccc(S(=O)(=O)N2CCCCC2C)cc1 (stereo not drawn),inactive: -20.1%,–
Cn1c(SCc2ccccc2)nnc1-c1cccs1,inactive: 3.37%,–

Structure (SMILES),"activity change, negative = inhibition",Potency
Cc1ccc(N(CC(=O)NC2CCCC2)C(=O)Cn2nnc(-c3ccccc3F)n2)cc1,–,"inconclusive: 11.2 µM [inhibitor, partial curve, poor fit]"
CCOc1ccc(NC(=O)CC2C(=O)N(c3ccccc3)C(=O)N2Cc2cccc(OC)c2)cc1 (stereo not drawn),inactive: -0.306% [at 46.1 µM],–
Cc1cc(C)cc(NC(=O)CCCn2c(=O)c3cccn3c3ccccc32)c1,–,"inconclusive: 35.5 µM [inhibitor, single point]"
COCCCNC(=O)c1nn(-c2ccc(C)cc2)c(=O)n(C)c1=O,inactive: 6.15% [at 46.1 µM],–
O=C(c1cnc(N2CCCCC2)c2ccccc12)N1CCN(c2cccc(Cl)c2)CC1,–,"inconclusive: 12.6 µM [inhibitor, single point]"
CC1CC(C)CN(CC(=O)c2ccc(OC(F)F)cc2)C1 (stereo not drawn),inactive: 7.6%,–
CCOC(=O)N1CCN(S(=O)(=O)c2ccc(C(=O)N(CCN(CC)CC)c3nc4ccc(C)cc4s3)cc2)CC1,inactive: 24.4%,–
CC(C)(C)n1nnnc1C(c1cccs1)N(Cc1ccccc1)Cc1ccco1 (stereo not drawn),–,"inconclusive: 31.6 µM [inhibitor, single point]"
COc1cccc2cc(C(=O)C3=C(O)C(=O)N(CCN4CCOCC4)C3c3ccc(C)o3)oc12 (stereo not drawn),inactive: 20.1% [at 46.1 µM],–
COc1ccc(C2CC(=O)c3sc(N)nc3C2)cc1 (stereo not drawn),–,"inconclusive: 7.3 µM [activator, partial curve, poor fit]"
O=C(NCc1cccs1)c1ccc(S(=O)(=O)N2CCCCC2)cc1,–,"inconclusive: 35.5 µM [inhibitor, single point]"
CCS(=O)(=O)N1Cc2ccccc2CC1C(=O)Nc1nc2ccccc2s1 (stereo not drawn),–,"inconclusive: 20 µM [inhibitor, partial curve, poor fit]"
COCCn1c(N)c(N(Cc2ccccc2)C(=O)CN2C(=O)NC(C)(c3ccccc3)C2=O)c(=O)[nH]c1=O (stereo not drawn),inactive: 27.5%,–
CC(c1ccccc1)N1CC(C(=O)N2CCN(Cc3ccc(C#N)cc3)CC2)CC1=O (stereo not drawn),–,"inconclusive: 12.6 µM [inhibitor, partial curve, poor fit]"
CCOc1ccc(NC(=O)C(=O)NCCc2ccccc2)cc1,inactive: -8.22% [at 46.1 µM],–
COCCCN(C(=S)Nc1cc(C)cc(C)c1)C(C)c1ccncc1 (stereo not drawn),inactive: 6.85%,–
COc1ccc(OCCC(=O)OCC(=O)NCCC2=CCCCC2)cc1,inactive: -1.05%,–
CCOC(=O)C1=C(C)NC(C)=C(C(=O)OCC)C1C(=O)OCC(=O)NCCc1ccccc1,–,"inconclusive: 2.82 µM [inhibitor, full curve]"
O=c1c(N2CCCCC2)csc2ccc(F)cc12,inactive: 28.1% [at 46.1 µM],–
COCCCNC(=S)N1CCC(C(=O)c2ccc(Cl)cc2)CC1,–,"inconclusive: 0.282 µM [activator, full curve, poor fit]"
CS(=O)(=O)Nc1ccc(C(=O)NCCC2=CCCCC2)cc1,inactive: 1.12%,–
O=[N+]([O-])c1ccccc1S(=O)(=O)N1CCN(CC2CC=CCC2)CC1 (stereo not drawn),–,"inconclusive: 6.31 µM [activator, single point]"
NS(=O)(=O)c1ccc(CCNC(=O)C(=O)c2c[nH]c3ccccc23)cc1,–,"inconclusive: 16.4 µM [inhibitor, partial curve, poor fit]"

Structure (SMILES),"activity change, negative = inhibition",Potency
COc1ccc(-c2nc3ccccc3s2)cc1NC(=O)COc1cccc(C)c1,inactive: -14.5% [at 46.1 µM],–
CCC1(C)Cc2ccccc2-c2nc(NCCO)n(-c3ccc(C)cc3)c(=O)c21 (stereo not drawn),–,"inconclusive: 10 µM [inhibitor, partial curve, poor fit]"
O=C(NCc1cccnc1)/C(=C\c1ccc(-c2ccc(Br)cc2)o1)S(=O)(=O)c1ccccc1,–,active: 12.6 µM
O=C1NC(=O)C(=Cc2ccc(Cl)cc2Cl)S1,–,"inconclusive: 35.5 µM [inhibitor, single point]"
CCOc1ccc(-c2nc(-c3cccs3)c(CC(=O)O)s2)cc1OC,–,"inconclusive: 35.5 µM [inhibitor, single point]"
O=C(Nc1ccc(F)cc1)Nc1ccc2snnc2c1,inactive: -26.4% [at 46.1 µM],–
Cc1csc(NC(=O)c2ccoc2C)n1,–,"inconclusive: 1.16 µM [activator, full curve, poor fit]"
COc1ccccc1OCC(=O)N(Cc1nc(-c2ccccc2)no1)C(C)C,–,active: 7.94 µM
COc1ccc(C(=O)Nc2ccc(Cl)cn2)cc1Cl,inactive: -17.6%,–
CC(C)(C)OC(=O)N1CCC(c2c(C(=O)N3CCN(C4CCCCC4)CC3)cnn2-c2ccc(F)cc2)CC1,–,"inconclusive: 1 µM [inhibitor, full curve, poor fit]"
Cc1cc(C)cc(Nc2c3c(nc4ncnn24)CCC3)c1,–,"inconclusive: 6.31 µM [inhibitor, partial curve, poor fit]"
Cc1ccc(C)c(NC(=S)N=Nc2c(O)n(C)c3ccc(S(=O)(=O)N4CCOCC4)cc23)c1,–,"inconclusive: 3.66 µM [inhibitor, full curve]"
Cc1ccc(C(=O)N2CCc3cc(CNC(=O)CCc4ccccc4)ccc32)cc1,–,"inconclusive: 0.562 µM [inhibitor, full curve, poor fit]"
Cc1cccc(NC(=O)C2C(C(=O)O)C3C=CC2C32CC2)c1C (stereo not drawn),inactive: -23.2%,–
Cc1ccc(C)c(N2CCN(C(=O)C3CCN(c4nnc(N5CCCC5=O)s4)CC3)CC2)c1,–,"inconclusive: 14.1 µM [inhibitor, single point]"
Cc1cccc2cc(CN(Cc3cccs3)C3(c4nnnn4C4CCCC4)CCCC3)c(=O)[nH]c12,–,"inconclusive: 7.94 µM [activator, partial curve, poor fit]"
CC(=O)c1cccc(NC(=S)NCCC2=CCCCC2)c1,–,"inconclusive: 35.5 µM [inhibitor, single point]"
CCNC(=O)c1c2c(nc3ccccc13)C(=O)N(C1CCCCC1)C2,inactive: 20.2% [at 46.1 µM],–
O=C(NCc1ccc(F)cc1)c1ccc(CS(=O)(=O)Cc2ccccc2F)o1,–,"inconclusive: 20 µM [inhibitor, partial curve, poor fit]"
O=C(CCc1nnc(-c2ccc(-c3ccccc3)cc2)o1)N1CCCCC1,–,"inconclusive: 15.8 µM [inhibitor, single point]"
CC(=O)Nc1ccc(S(=O)(=O)N2CCN(c3cc(C)nc4ccccc34)CC2)cc1,–,"inconclusive: 0.259 µM [inhibitor, single point]"
COc1ccc(S(=O)(=O)N2CCC(C(=O)N3CCc4ccccc4C3)CC2)cc1Cl,inactive: -7.17%,–

# Filtered by structure: those above with a tert-butyl group
Structure (SMILES),"activity change, negative = inhibition",Potency
CC(C)(C)CC(C)(C)NC(=S)Nc1ccc(S(=O)(=O)N2CCOCC2)cc1,–,"inconclusive: 16.4 µM [inhibitor, partial curve]"
CC(C)(C)n1nnnc1C(c1cccs1)N(Cc1ccccc1)Cc1ccco1 (stereo not drawn),–,"inconclusive: 31.6 µM [inhibitor, single point]"
CC(C)(C)OC(=O)N1CCC(c2c(C(=O)N3CCN(C4CCCCC4)CC3)cnn2-c2ccc(F)cc2)CC1,–,"inconclusive: 1 µM [inhibitor, full curve, poor fit]"
